The results in this text go back to PubChem BioAssay AID248 (DTP/NCI, 2004).

The list is a part of this screen's results and no random one: it gathers tests that were run many times, whatever their T/C, doses with no T/C, and many T/C values between a quarter and a half above the control. Other doses and runs of a compound stand elsewhere. T/C is the treated group as % of the vehicle group. Some doses have a count of surviving animals in place of a T/C: the source holds a T/C of zero for them, seemingly a mark for toxic or unscored doses. Some survivor counts are full or nearly so, which does not show that the dose was tolerated: survival well below the control is almost never listed, so the zero probably covers shortened survival too. Survivors were counted at the toxicity check, usually on the fifth day, unless a day is given; later deaths do not show. Schedules are NCI's codes, taken here to give the interval after Q, in days (D) or hours (H), and the number of doses after X. Some schedule codes hold Z or #, which are not explained here. Some entries were tested several times; their values stand side by side, smallest first. For survival time, this PubChem deposit counts one and a half times the control or more as active, and values a quarter to a half above the control carry no call in these data; other NCI protocols may use other cut-offs. Some T/C values are followed by the survivors on the day toxicity was checked, most often the fifth; without a count, all were alive then.

The assay has as its system L1210 leukemia ip in BDF1 mice, survival T/C. Put plainly: NCI In Vivo Anticancer Drug Screen. Data for tumor model L1210 Leukemia (intraperitoneal) in B6D2F1 (BDF1) mice. The settings on record: T/C endpoint: mean survival time, higher T/C = longer survival.
Setting [1] is: dose: 200.0 mg/kg/injection, schedule: Q01DX009 (ip), vehicle: water.
The mark [2] stands for this setting: dose: 400.0 mg/kg/injection, schedule: Q01DX009 (ip), vehicle: water.
Where [3] appears, read: dose: 600.0 mg/kg/injection, schedule: Q01DX009 (ip), vehicle: water.
[4] abbreviates: dose: 750.0 mg/kg/injection, schedule: Q01DX Z (ip), vehicle: water.
Where [5] appears, read: dose: 800.0 mg/kg/injection, schedule: Q01DX009 (ip), vehicle: water.
The mark [6] stands for this setting: dose: 400.0 mg/kg/injection, schedule: Q04DX002 (ip), vehicle: saline with Tween-80.

On to `O=C(NO)c1ccncc1`, for which the survivor count (dose: 200.0 mg/kg/injection, schedule: Q01DX005 (ip), vehicle: water) is recorded as 6 of 6; the survivor count (dose: 200.0 mg/kg/injection, schedule: Q01DX005 (iv), vehicle: water) is 1 of 6; the survivor count under setting [1] is listed as 6 of 6; the survivor count (dose: 200.0 mg/kg/injection, schedule: Q02DX005 (ip), vehicle: water) was 6 of 6; the survivor count (dose: 400.0 mg/kg/injection, schedule: Q01DX005 (ip), vehicle: water) was 2 of 6; the survivor count under setting [2] is 6 of 6. Moreover, the survivor count reads like this: (dose: 400.0 mg/kg/injection, schedule: Q02DX005 (ip), vehicle: water) 2 of 6; (dose: 500.0 mg/kg/injection, schedule: Q01DX005 (iv), vehicle: water) 0 of 6; (dose: 600.0 mg/kg/injection, schedule: Q01DX005 (ip), vehicle: water) 0 of 6; under setting [3], 0 of 6; (dose: 600.0 mg/kg/injection, schedule: Q02DX005 (ip), vehicle: water) 1 of 6; (dose: 750.0 mg/kg/injection, schedule: Q01DX009 (im), vehicle: water) 4 of 6. The survivor count is given as 2 of 6 (dose: 750.0 mg/kg/injection, schedule: Q01DX009 (sc), vehicle: water); 4 of 6 under setting [4]; 0 of 6 (dose: 800.0 mg/kg/injection, schedule: Q01DX005 (ip), vehicle: water); 0 of 6 under setting [5]; 3 of 6 (dose: 800.0 mg/kg/injection, schedule: Q01DX015 (ip), vehicle: water); 0 of 6 (dose: 800.0 mg/kg/injection, schedule: Q02DX005 (ip), vehicle: water). For the same compound, the survivor count reads like this: (dose: 800.0 mg/kg/injection, schedule: Q04DX003 (ip), vehicle: water) 5 of 6; (dose: 900.0 mg/kg/injection, schedule: Q01DX015 (ip), vehicle: water) 0 of 6; (dose: 1000.0 mg/kg/injection, schedule: Q01DX001 (ip), vehicle: water) 0 of 6 and 1 of 4; (dose: 1000.0 mg/kg/injection, schedule: Q01DX009 (im), vehicle: water) 1 of 6; (dose: 1000.0 mg/kg/injection, schedule: Q01DX009 (sc), vehicle: water) 2 of 6; (dose: 1250.0 mg/kg/injection, schedule: Q01DX015 (im), vehicle: water) 3 of 6. The survivor count reads like this: (dose: 1400.0 mg/kg/injection, schedule: Q03DX005 (ip), vehicle: water) 3 of 6; (dose: 1500.0 mg/kg/injection, schedule: Q01DX001 (ip), vehicle: water) 0 of 4; (dose: 1500.0 mg/kg/injection, schedule: Q01DX015 (oral), vehicle: water) 3 of 6; (dose: 2000.0 mg/kg/injection, schedule: Q01DX001 (ip), vehicle: water) 0 of 4; (dose: 2000.0 mg/kg/injection, schedule: Q01DX015 (oral), vehicle: water) 0 of 6. The T/C was 101, 106, 107, 115 % of control under setting [1]; 136 % of control (dose: 267.0 mg/kg/injection, schedule: Q#B X027 (ip), vehicle: water); 125 % of control (dose: 300.0 mg/kg/injection, schedule: Q01DX009 (ip), vehicle: water); 125 % of control (dose: 335.0 mg/kg/injection, schedule: Q01DX Z (ip), vehicle: water); 108, 110, 128, 135 % of control under setting [2]; 133 % of control (dose: 400.0 mg/kg/injection, schedule: Q01DX015 (ip), vehicle: water). The T/C is, setting by setting: (dose: 400.0 mg/kg/injection, schedule: Q01DX Z (ip), vehicle: water) 128 % of control [5 of 6 alive]; (dose: 400.0 mg/kg/injection, schedule: Q02DX Z (ip), vehicle: water) 126 % of control; (dose: 450.0 mg/kg/injection, schedule: Q01DX015 (ip), vehicle: water) 143 % of control; (dose: 500.0 mg/kg/injection, schedule: Q01DX015 (ip), vehicle: water) 136 % of control; (dose: 500.0 mg/kg/injection, schedule: Q01DX Z (ip), vehicle: water) 106, 127, 131, 145, 149 % of control; (dose: 500.0 mg/kg/injection, schedule: Q02DX008 (ip), vehicle: water) 126 % of control. Further, the T/C by setting is: under setting [3], 108, 141, 153, 163, 165 % of control; (dose: 600.0 mg/kg/injection, schedule: Q01DX015 (ip), vehicle: water) 135 % of control; (dose: 600.0 mg/kg/injection, schedule: Q01DX Z (ip), vehicle: water) 149 % of control; (dose: 700.0 mg/kg/injection, schedule: Q01DX015 (ip), vehicle: water) 144 % of control; under setting [4], 134, 138 [5 of 6 alive], 140, 182 % of control; under setting [5], 98 [5 of 6 alive], 152 [5 of 6 alive], 172 % of control. Besides, the T/C (dose: 800.0 mg/kg/injection, schedule: Q02DX Z (ip), vehicle: water) was 134 % of control [5 of 6 alive].
Take `CCOC(=O)C(Br)c1cccc(OC)c1` (stereo unspecified): the T/C (dose: 200.0 mg/kg/injection, schedule: Q04DX003 (ip), vehicle: saline sonified) is 127 % of control.
Turning to `CC(c1ccccc1)N1C(=O)CSC1=S` (stereo unspecified), the survivor count under setting [6] is reported as 3 of 3.
With `Cc1ccc([N+](=O)[O-])cc1NC(=O)Nc1cccc2c(O)cccc12`, the survivor count (dose: 400.0 mg/kg/injection, schedule: Q01DX009 (ip), vehicle: Klucel (hydroxypropylcellulose) (HPC)) was 6 of 6.
On to `CC(C)=CCCC(C)CCOC(N)=O` (stereo unspecified), for which the survivor count under setting [6] is recorded as 0 of 3.
`CC(C)(C)CC(C)(C)c1ccc(OCCOc2ccc(NS(=O)(=O)c3ccc(N)c([N+](=O)[O-])c3)cc2)cc1`: the survivor count (dose: 400.0 mg/kg/injection, schedule: Q04DX003 (ip), vehicle: saline with Tween-80) is 6 of 6.
As to `Cc1oncc1/C=C/c1ccon1`, the survivor count (dose: 400.0 mg/kg/injection, schedule: Q04DX003 (ip), vehicle: other) was 1 of 6.
Take `COc1cc2c(cc1OC)C1CCC3=C(O)CCC3=[N+]1CC2` (stereo unspecified): the survivor count (dose: 400.0 mg/kg/injection, schedule: Q04DX002 (ip), vehicle: Klucel (hydroxypropylcellulose) (HPC)) was 3 of 3.
As to `CC(C)(C)c1cccc(C(C)(C)C)c1OC(=O)NS(=O)(=O)c1ccccc1`, the survivor count is recorded as 6 of 6 (dose: 100.0 mg/kg/injection, schedule: Q04DX003 (ip), vehicle: acetone); 3 of 6 (dose: 170.0 mg/kg/injection, schedule: Q01DX009 (ip), vehicle: Klucel (hydroxypropylcellulose) (HPC)); 0 of 6 (dose: 200.0 mg/kg/injection, schedule: Q04DX003 (ip), vehicle: acetone); 0 of 6 (dose: 400.0 mg/kg/injection, schedule: Q04DX003 (ip), vehicle: acetone).
For `CC1CCCCN1Cc1ccccc1COC(=O)c1ccc([N+](=O)[O-])cc1Cl` (stereo unspecified), under setting [6], the survivor count was 1 of 3.
As for `C[C@H]1CCC/C=C/[C@@H]2C[C@H](O)C[C@H]2[C@H](O)/C=C/C(=O)O1`, the survivor count (dose: 400.0 mg/kg/injection, schedule: Q01DX001 (ip), vehicle: carboxymethylcellulose (CMC)) is on record as 0 of 4.
